Data from US20150351380A1, “TISSUE-PRESERVING LIQUID AND TISSUE-PRESERVING METHOD” (OSAKA UNIVERSITY, priority 2012, published 2015).
At least one structure is not confirmed: it was looked up by name or label, or the drawing left a doubt.

System: luciferase transgenic rat-derived oral mucosal cell sheet
Assay: Residual ATP level in luciferase transgenic rat-derived oral mucosal cell sheet after preservation and post-preservation culture
Type: cell-based
Settings: additive in HBSS (ebselen 1 μM, 10 μM, 100 μM), n=3
Description: An oral tissue of a luciferase transgenic rat (Hakamata Y, Murakami T, Kobayashi E., Transplantation 2006; 81(8): 1179-1184) was provided by Dr. Eiji Kobayashi in the Division of Development of Advanced Treatment, Jichi Medical University. The oral tissue was washed twice with DMEM (Gibco) supplemented with 1% antibiotics and antimycotics (AbAm, Gibco). The washed tissue was immersed in a solution of dispase I (1,000 PU/ml) in DMEM supplemented with 1% AbAm at 4° C. for 4 hours. After the dispase treatment, the tissue was transferred into a 0.02% EDTA solution (nacalai tesque), immersed therein at room temperature for 2 minutes, and washed twice with PBS. […]
The ATP level in a cell sheet correlates with the viability of the cell sheet. The ATP levels in a cell sheet before preservation, after preservation and after post-preservation culture were measured as an indicator of the viability of the cell sheet. […] After this, the 96-well plate was set in a luminescence microplate reader Centro LB960 (Berthold Technologies GmbH & Co. KG), and according to the device settings of the microplate reader, addition of luciferin (final concentration; 0.19 mg/ml) and measurement of the ATP level were conducted. The measurement temperature was 4° C., the single reading time was 2 seconds, and the total reading time was 12 minutes. […]

## O=c1c2ccccc2[se]n1-c1ccccc1 [ebselen]
  residual ATP level after 7 days of preservation compared with the basal preservation solution alone: remarkably higher
